Results as given in article PMC12667200.
Results are given in words; binding and its absence hold for the method and conditions named. In cells and extracts the contact can be indirect. Some entries that bind do so weakly or less than the wild type.

Key:
[1] = molecular target: p53, endogenous (human (endogenous in HeLa)) (UniProt P04637); experiment: co-IP; endogenous proteins; HeLa WT and bag3 KO cells heat stressed at 42 °C for 1 h, recovery at 37 °C for 1 h; nuclear fractions; immunoprecipitation with anti-Hsp70 or anti-p53, western blot
GFP-tagged BAG3 = GFP-tagged BAG3 (UniProt O95817); experiment: co-IP; HeLa cells cotransfected with tagged constructs; lysed in RIPA buffer (total cell extracts); immunoprecipitation with anti-FLAG or anti-GFP, western blot
[2] = molecular target: N-terminal FLAG-tagged full-length BAG3 (BAG3-WT, amino acids 1-575) (UniProt O95817); experiment: as above

Substance	binding [1]	binding (GFP-tagged BAG3)	binding [2]
Bcl-2-associated athanogene 3 (BAG3), endogenous (from UniProt O95817 1-575)	binds		
N-terminal myc-tagged full-length p53 (p53-WT, amino acids 1-393) (from UniProt P04637 1-393)		binds	binds
